Assay results from article PMC9551036, “A selective and orally bioavailable VHL-recruiting PROTAC achieves SMARCA2 degradation in vivo” (Nature Communications, 2022).
Several values for one entry are separate records, joined by “and”; a condition that tells them apart may be missing. Identical values can stand only once. The source gives many values for each of these; only a part stands here.

Tested on: panel of cell lines (A549, HCC-364, HCC-515, HCC4006, KYSE-30, LU99, LXFA_629L, LXFA_923L, LXFL_529L, LXFL_1121L, MP38, NCI-H23, NCI-H1355, OV-90, SK-MEL-5 …)
Assay: Cell viability assay (CellTiter Glo) in a panel of cell lines;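 on % Viability: percent of DMSO-treated control cells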
Assay type: cell-based, human
Experimental: 500–2000 cells were seeded in white, clear bottom 96-well plates (Corning or Perkin Elmer) in 180–200 µl medium per well. The next day, compounds were added using a digital dispenser and a T0 sample was measured for reference. Cells were incubated for 144–192 h, and viability (luminescence) was measured using CellTiter Glo or CellTiter Glo 2.0 (Promega) according to manufacturer’s instructions after equilibrating cells and reagents at room temperature and 10–20 min incubation time while shaking.

## Cc1ncsc1-c1ccc(C(CCC(C)CCN2CCC(c3ccc4c(c3)n(C3CCCC3)c3nc(=O)c5c(Br)cccc5n43)CC2)NC(=O)C2CC(O)CN2C(=O)C(NC(=O)C2(F)CC2)C(C)(C)C)cc1 (stereo not drawn) [ACBI2]
LXFA_923L, log10 conc -10 mol/l
  % Viability: 94.6277% and 107.522%
LXFA_923L, log10 conc -10.5003 mol/l
  % Viability: 100.788% and 114.758%
LXFL_529L
  Bottom (% Viability, four-parameter fit): 1.803%
  Top (% Viability, four-parameter fit): 115.4%
LXFL_529L, log10 conc -5 mol/l
  % Viability: -0.2275% and -0.2915%
LXFL_529L, log10 conc -5.50031 mol/l
  % Viability: 1.427% and 1.018%
LXFL_529L, log10 conc -6 mol/l
  % Viability: 6.337%
LXFL_529L, log10 conc -6.50031 mol/l
  % Viability: 9.0758%
LXFL_529L, log10 conc -7 mol/l
  % Viability: 11.8024%
LXFL_529L, log10 conc -9 mol/l
  % Viability: 37.1344% and 45.876%
LXFL_529L, log10 conc -9.50031 mol/l
  % Viability: 62.3969% and 71.188%
LXFL_529L, log10 conc -10 mol/l
  % Viability: 75.0423% and 80.5456%
LXFL_529L, log10 conc -10.5003 mol/l
  % Viability: 79.3021% and 94.5269%
LXFL_1121L
  Top (% Viability, four-parameter fit): 103.2%
LXFL_1121L, log10 conc -5 mol/l
  % Viability: 0.9252% and 0.3599%
LXFL_1121L, log10 conc -5.50031 mol/l
  % Viability: 78.711% and 94.6959%
LXFL_1121L, log10 conc -6 mol/l
  % Viability: 103.113%
LXFL_1121L, log10 conc -6.50031 mol/l
  % Viability: 98.8113%
LXFL_1121L, log10 conc -7 mol/l
  % Viability: 98.81%
LXFL_1121L, log10 conc -9 mol/l
  % Viability: 107.363% and 113.991%
LXFL_1121L, log10 conc -9.50031 mol/l
  % Viability: 107.228% and 111.35%
LXFL_1121L, log10 conc -10 mol/l
  % Viability: 102.749% and 106.981%
LXFL_1121L, log10 conc -10.5003 mol/l
  % Viability: 101.922% and 106.367%
MP38
  Bottom (% Viability, four-parameter fit): 0.5751%
  Top (% Viability, four-parameter fit): 100.1%
MP38, log10 conc -5 mol/l
  % Viability: -0.2804% and -0.0183%
MP38, log10 conc -5.50031 mol/l
  % Viability: 2.294% and 2.158%
MP38, log10 conc -6 mol/l
  % Viability: 1.8016%
MP38, log10 conc -6.50031 mol/l
  % Viability: 0.4587%
MP38, log10 conc -7 mol/l
  % Viability: 1.199%
MP38, log10 conc -9 mol/l
  % Viability: 96.5713% and 94.9035%
MP38, log10 conc -9.50031 mol/l
  % Viability: 104.952% and 103.401%
MP38, log10 conc -10 mol/l
  % Viability: 95.4661% and 92.9492%
MP38, log10 conc -10.5003 mol/l
  % Viability: 101.896% and 104.542%
NCI-H23
  Top (% Viability, four-parameter fit): 98.08%
NCI-H23, log10 conc -5.30103 mol/l
  % Viability: 0.1672% and 7.077%
NCI-H23, log10 conc -5.90309 mol/l
  % Viability: 84.1185%
NCI-H23, log10 conc -6.50446 mol/l
  % Viability: 90.9419%
NCI-H23, log10 conc -8.91364 mol/l
  % Viability: 95.7855% and 110.036%
NCI-H23, log10 conc -9.5157 mol/l
  % Viability: 99.9548% and 109.433%
NCI-H23, log10 conc -10.1175 mol/l
  % Viability: 94.0472% and 104.784%
NCI-H1355
  Bottom (% Viability, four-parameter fit): 37.08%
  Top (% Viability, four-parameter fit): 98.74%
NCI-H1355, log10 conc -8.91364 mol/l
  % Viability: 94.5379% and 99.7786%
NCI-H1355, log10 conc -9.5157 mol/l
  % Viability: 97.2854% and 103.36%
NCI-H1355, log10 conc -10.1175 mol/l
  % Viability: 93.3347% and 101.753%
OV-90
  Bottom (% Viability, four-parameter fit): 32.83%
  Top (% Viability, four-parameter fit): 104.1%
OV-90, log10 conc -5.30103 mol/l
  % Viability: 26.9189% and 37.7653%
OV-90, log10 conc -5.90309 mol/l
  % Viability: 41.2909%
OV-90, log10 conc -6.50446 mol/l
  % Viability: 44.8049%
OV-90, log10 conc -8.91364 mol/l
  % Viability: 96.0338% and 104.921%
OV-90, log10 conc -9.5157 mol/l
  % Viability: 94.2442% and 107.983%
OV-90, log10 conc -10.1175 mol/l
  % Viability: 101.454% and 110.843%
SK-MEL-5
  Bottom (% Viability, four-parameter fit): 0.627%
  Top (% Viability, four-parameter fit): 83.26%
SK-MEL-5, log10 conc -5.30103 mol/l
  % Viability: 0.2128% and -0.1687%
SK-MEL-5, log10 conc -5.90309 mol/l
  % Viability: 1.025%
SK-MEL-5, log10 conc -6.50446 mol/l
  % Viability: 1.277%
SK-MEL-5, log10 conc -8.91364 mol/l
  % Viability: 43.9093% and 76.9393%
SK-MEL-5, log10 conc -9.5157 mol/l
  % Viability: 57.8162% and 85.5386%
SK-MEL-5, log10 conc -10.1175 mol/l
  % Viability: 72.3673% and 94.158%
TOV-112D
  Top (% Viability, four-parameter fit): 105.4%
TOV-112D, log10 conc -5.30103 mol/l
  % Viability: 47.8559% and 46.2285%
TOV-112D, log10 conc -5.90309 mol/l
  % Viability: 99.1574%
TOV-112D, log10 conc -6.50446 mol/l
  % Viability: 102.024%
TOV-112D, log10 conc -8.91364 mol/l
  % Viability: 102.723% and 100.251%
TOV-112D, log10 conc -9.5157 mol/l
  % Viability: 112.405% and 107.421%
TOV-112D, log10 conc -10.1175 mol/l
  % Viability: 108.034% and 102.966%
